PubChem BioAssay AID1159584 | Peter MacCallum Cancer Centre – 2016
In all, the deposit lists about 18,000 reagents; this is a random part of them. Not stated in the record: the amount of reagent, the time to read-out.

- Screen: 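Knock-downs that harm CDH1-null cells more than parental MCF10A cells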 (primary screen)
- Cells: human MCF10A breast epithelial cells, parental and CDH1-null
- Knock-down reagent: siRNA against human genes
- Measurement: 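ATP luminescence (CellTiter-Glo) viability per line relative to mean mock wells over all plates, and the ratio of CDH1-null to parental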
- Reading the numbers: CDH1-null / parental viability ratio: higher = CDH1-null cells survive relatively better than parental; CDH1-null viability vs mock: higher = more viable CDH1-null cells; parental viability vs mock: higher = more viable parental cells

CDH1-null / parental viability ratio	CDH1-null viability vs mock (fraction of mock)	parental viability vs mock (fraction of mock)	target gene
1	0.84	0.84	PBX4 (PBX homeobox 4)
1.02	1.06	1.04	MMD (monocyte to macrophage differentiation associated)
0.98	0.84	0.86	CD5L (CD5 molecule like)
0.96	0.72	0.75	KLHL25 (kelch like family member 25)
1.43	0.8	0.56	GSG1 (germ cell associated 1)
1.11	0.8	0.72	FGD2 (FYVE, RhoGEF and PH domain containing 2)
0.97	0.72	0.74	KIR3DL3
1.17	1.22	1.04	PPIL3 (peptidylprolyl isomerase like 3)
0.77	0.7	0.91	SH2D1B (SH2 domain containing 1B)
1.09	0.98	0.9	NBPF8 (NBPF member 8)
1.17	0.54	0.46	MRPL47 (mitochondrial ribosomal protein L47)
1.17	0.89	0.76	STEAP1 (STEAP family member 1)
1.05	0.78	0.74	EID3 (EP300 interacting inhibitor of differentiation 3)
1.62	0.42	0.26	RPL35A (ribosomal protein L35a)
1.04	0.56	0.54	PROK2 (prokineticin 2)
1.01	0.94	0.93	DYNC1H1 (dynein cytoplasmic 1 heavy chain 1)
1.07	0.92	0.86	CCDC85B (coiled-coil domain containing 85B)
0.86	0.64	0.74	LIMK2 (LIM domain kinase 2)
0.54	0.28	0.52	ESPNL (espin like)
0.97	0.74	0.76	ZC3H11A (zinc finger CCCH-type containing 11A)
0.84	0.62	0.74	MPRIP (myosin phosphatase Rho interacting protein)
1.13	1.04	0.92	RSPH1 (radial spoke head component 1)
1.56	0.84	0.54	KCNQ4 (potassium voltage-gated channel subfamily Q member 4)
1.03	1	0.97	LHB (luteinizing hormone subunit beta)
0.89	0.48	0.54	GPIHBP1
0.77	0.8	1.04	LRRC49 (leucine rich repeat containing 49)
1.13	1.06	0.94	BOK (BCL2 family apoptosis regulator BOK)
1.02	0.62	0.61	AKNA (AT-hook transcription factor)
1.55	1.02	0.66	CT45A5 (cancer/testis antigen family 45 member A5)
1.21	0.75	0.62	H4C13 (H4 clustered histone 13)
0.76	0.9	1.19	SMARCA5 (SNF2 related chromatin remodeling ATPase 5)
0.93	0.99	1.07	ZBTB25 (zinc finger and BTB domain containing 25)
1.42	0.74	0.52	UTP11 (UTP11 small subunit processome component)
0.84	0.84	1	CHRDL2 (chordin like 2)
0.83	0.57	0.69	CD7 (CD7 molecule)
1.14	0.89	0.78	ZDHHC7 (zDHHC palmitoyltransferase 7)
0.87	0.8	0.92	MYOM3 (myomesin 3)
1.59	0.86	0.54	HERC1
1.24	0.84	0.68	BTG4 (BTG anti-proliferation factor 4)
0.96	0.86	0.9	MSTO1 (misato mitochondrial distribution and morphology regulator 1)
1.15	1.02	0.89	SLC36A4
1.19	0.57	0.48	EBF2 (EBF transcription factor 2)
0.98	0.85	0.87	SPACA1 (sperm acrosome associated 1)
0.92	0.93	1.01	FCGR2B (Fc gamma receptor IIb)
1.08	0.64	0.59	H4C2 (H4 clustered histone 2)
1.15	1	0.87	FGF17 (fibroblast growth factor 17)
0.96	0.48	0.5	MDGA1 (MAM domain containing glycosylphosphatidylinositol anchor 1)
0.75	0.42	0.56	NUDT16L1 (nudix hydrolase 16 like 1)
0.68	0.54	0.8	MARK2 (microtubule affinity regulating kinase 2)
1.27	0.76	0.6	BRINP2 (BMP/retinoic acid inducible neural specific 2)
0.84	0.66	0.79	PINX1 (PIN2 (TERF1) interacting telomerase inhibitor 1)
0.91	0.5	0.55	SNRPC (small nuclear ribonucleoprotein polypeptide C)
1.49	1.21	0.81	FAM24A (family with sequence similarity 24 member A)
0.98	0.62	0.63	SAP30BP (SAP30 binding protein)
1.1	0.44	0.4	ZNF250 (zinc finger protein 250)
1.08	0.98	0.91	ADK (adenosine kinase)
0.83	0.45	0.54	OR10S1 (olfactory receptor family 10 subfamily S member 1)
1.28	0.64	0.5	PTOV1 (PTOV1 extended AT-hook containing adaptor protein)
1.08	0.8	0.74	GSTO2 (glutathione S-transferase omega 2)
1.24	0.78	0.63	CABLES1 (Cdk5 and Abl enzyme substrate 1)
0.91	0.78	0.86	GORAB (golgin, RAB6 interacting)
1.27	0.52	0.41	SLC35F2
1.03	0.61	0.59	KLRC3 (killer cell lectin like receptor C3)
0.57	0.58	1.01	ADGRB2 (adhesion G protein-coupled receptor B2)
1.11	1.04	0.94	ZNF345 (zinc finger protein 345)
1.26	0.91	0.72	LMCD1 (LIM and cysteine rich domains 1)
1.01	0.74	0.73	SLC6A6
0.97	0.9	0.93	PNLIP (pancreatic lipase)

Ordered by “parental viability vs mock (fraction of mock)” (descending): 11 of the entries above
CDH1-null / parental viability ratio	CDH1-null viability vs mock (fraction of mock)	parental viability vs mock (fraction of mock)	target gene
0.84	0.84	1	CHRDL2 (chordin like 2)
0.87	0.8	0.92	MYOM3 (myomesin 3)
0.96	0.86	0.9	MSTO1 (misato mitochondrial distribution and morphology regulator 1)
1.15	1.02	0.89	SLC36A4
0.98	0.85	0.87	SPACA1 (sperm acrosome associated 1)
1.14	0.89	0.78	ZDHHC7 (zDHHC palmitoyltransferase 7)
0.83	0.57	0.69	CD7 (CD7 molecule)
1.24	0.84	0.68	BTG4 (BTG anti-proliferation factor 4)
1.59	0.86	0.54	HERC1
1.42	0.74	0.52	UTP11 (UTP11 small subunit processome component)
1.19	0.57	0.48	EBF2 (EBF transcription factor 2)
